Measurements as given in the supplement of paper PMC3334620.
In all, about 33,000 sequences were measured (“E-score (-0.5 to 0.5)”: median about -0.0059, highest 2% from about 0.26 on). The list shows a part of the results.

target: T1, Cin5 (UniProt P40917); assay: PBM E-score (8-mer binding enrichment) (E-score (-0.5 to 0.5)); higher = stronger / more preferred TF binding; conditions: protein concentration: 100 nM; construct: GST-full length
T1 sequence: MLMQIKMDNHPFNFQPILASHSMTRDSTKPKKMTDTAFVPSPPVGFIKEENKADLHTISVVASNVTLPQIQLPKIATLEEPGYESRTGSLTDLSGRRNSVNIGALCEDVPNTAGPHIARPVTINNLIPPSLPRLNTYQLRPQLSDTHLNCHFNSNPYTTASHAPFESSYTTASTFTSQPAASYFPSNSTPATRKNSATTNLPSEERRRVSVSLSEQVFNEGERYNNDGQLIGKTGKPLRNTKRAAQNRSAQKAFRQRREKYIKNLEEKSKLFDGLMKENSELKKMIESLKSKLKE
Procedure, shortened: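 Universal all-10-mer Agilent arrays, fresh or stripped once, were converted to double-stranded form by primer extension. GST-tagged yeast transcription factors from PURExpress in vitro transcription/translation, full-length or DNA-binding domain only, were applied at about 100-200 nM and detected with fluorescent anti-GST. After masliner normalisation, the Universal PBM Analysis Suite scored each ungapped eight-base word together with its reverse complement by E-score.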

Sequence | PBM E-score
AGTTCCTA | 0.0694
ACGTTCAT | -0.0937
AAGAATCT | -0.128
GGGCCAGA | -0.265
GACACCCA | -0.106
GATCTCCA | -0.0586
ACTCTTAG | -0.0953
GATATCGA | 0.0864
ATCCGCCA | -0.0147
GAACCAAC | 0.0653
GATACGAC | 0.0789
GGCTTCCC | -0.126
AGGTCGAT | 0.11
GTGCCTTA | -0.0415
GTTTAACA | -0.0762
AGTACCTC | -0.104
GAACAGGA | -0.126
ATGTCTAA | 0.109
AGTGATAC | 0.0142
CCTCCACA | -0.0493
CAAGTTGC | 0.067
CGCCGTTA | -0.0979
GGTTCCCA | -0.0888
GGAATGAC | -0.078

Sequence | PBM E-score
GTCACGAC | -0.0235
ATAACCAC | 0.223
CCCAACAG | -0.17
AAATCAGT | 0.0941
ATTGGAGC | 0.116
CAAACGCC | 0.0669
CAGACGAC | -0.168
ACGTTAGA | -0.0459
AAGTCACA | -0.0425
GAACTCCC | -0.00495
GGAGCTTA | -0.0361
GGGCCTCA | -0.137
ACTTTATC | 0.0555
AGCTGCAA | -0.123
ACCGACTA | -0.265
CGATTTGA | 0.0886
GGGTGGAC | -0.0521
GACCCCGA | -0.0484
CAGCGCCC | -0.229
CTAATTGC | 0.176
GTCGGCAA | -0.191
CCTGTTGC | 0.095
GGGTCTCA | -0.198
AATAGGCT | 0.0941

Sequence | PBM E-score
AAGACCCG | -0.133
GGGATAAC | 0.0275
CCGAGCGA | 0.0201
CAAATGCC | -0.0795
ACAACTAG | -0.0625
GGTTCCAA | 0.00179
AACAGCGC | -0.0369
AAGCCTCA | -0.101
TCTCCTAA | -0.0306
ACTCCTCC | -0.164
TCGAAAAA | 0.121
AGGCATGA | -0.0554
AAACCGTC | -0.205
TACTTCGA | 0.183
ACGTAAAC | 0.0855
AATGCTAT | 0.117
GGGCTAGA | -0.149
GTTCTAAA | -0.0688
CGGAGTTA | -0.0355
CCCCGAGA | -0.0837
GCCTACAA | 0.00108
AACACTTG | -0.053
TCGAGGAA | -0.127
ACGTTTCC | -0.0884

17 neighbouring records out of the list so far:
Sequence | PBM E-score
CCGAGCGA | 0.0201
CAAATGCC | -0.0795
ACAACTAG | -0.0625
GGTTCCAA | 0.00179
AACAGCGC | -0.0369
AAGCCTCA | -0.101
TCTCCTAA | -0.0306
ACTCCTCC | -0.164
TCGAAAAA | 0.121
AGGCATGA | -0.0554
AAACCGTC | -0.205
TACTTCGA | 0.183
ACGTAAAC | 0.0855
AATGCTAT | 0.117
GGGCTAGA | -0.149
GTTCTAAA | -0.0688
CGGAGTTA | -0.0355

Next results.

Sequence | PBM E-score
CGTCCGCA | -0.0867
GATGATTA | 0.23
CGCTCCAA | -0.133
CGCTCGTC | -0.208
ACTGCACG | -0.0546
ACGATGAC | -0.107
CGCGTCCG | 0.069
GCCCGACA | 0.0209
AACCGATG | 0.112
CCAAGATC | -0.0132
ATCTTCCC | 0.0532
AAATGTCT | -0.0156
AATGAGCC | -0.112
GTCAATCA | 0.0076
AAAGCTGC | 0.0861
ACCGGGCA | -0.169
ATGCCTCG | -0.0381
CATAAGAG | 0.113
AGAAGCTC | -0.146
AACGGTGG | -0.202
CATGCAGC | -0.0897
AGAGAGGG | -0.271
